# Values quoted from earlier work as cited in patent US4918064A, “Phenyl glycines for use in reducing neurotoxic injury” (G. D. Searle & Co., priority 1987, dated 1990).
# At least one structure is not confirmed: it was looked up by name or label, or the drawing left a doubt.
# System: chick embryo retina
# Conditions: 1 mM Glu in BSS, 30 min, 15-day-old chick embryo retina; cited from earlier work
compound,measurement,value
N[C@@H](CCC(=O)O)C(=O)O [Glutamate],lesion after incubation with agonist,a fully developed lesion occurs
